Experimental data: article PMC4978403

Tests used:
[1] = molecular target: T1, GST-SAV1 fusion protein (chicken SAV1) (chicken) (UniProt E1C3T7); test: pull-down; CHO cells co-transfected with pSF-GST-SAV1 (or empty pSF-GST) and one of pcDNA3.0-STK4, STK3, LATS1, MOB2 for 24 h; lysates incubated with Glutathione Sepharose 4B beads overnight, washed three times with lysis buffer; western blot
T1 sequence: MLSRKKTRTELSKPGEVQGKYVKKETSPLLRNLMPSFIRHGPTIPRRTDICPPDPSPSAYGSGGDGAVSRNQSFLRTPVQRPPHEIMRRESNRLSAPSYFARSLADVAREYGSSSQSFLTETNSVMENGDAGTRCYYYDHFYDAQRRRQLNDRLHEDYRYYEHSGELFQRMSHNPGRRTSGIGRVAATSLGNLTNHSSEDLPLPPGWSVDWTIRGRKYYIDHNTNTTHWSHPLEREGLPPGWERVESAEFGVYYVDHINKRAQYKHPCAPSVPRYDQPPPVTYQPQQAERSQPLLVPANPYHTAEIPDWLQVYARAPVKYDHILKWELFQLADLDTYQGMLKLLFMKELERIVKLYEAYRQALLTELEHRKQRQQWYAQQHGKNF

[2] = molecular target: T2, FLAG-SAV1 (chicken Salvador homolog 1, FLAG-tagged) (chicken) (UniProt E1C3T7); test: co-IP; chicken granulosa cells transfected with pFLAG-SAV1 for 24 h; lysates immunoprecipitated with an antibody to FLAG (control: chicken IgG); 50 mM Tris-HCl pH 7.4, 150 mM NaCl, 0.2 mM PMSF, 1% Triton X-100, 1 mM EDTA; immunoblot for the endogenous partners
T2 sequence: T1 sequence

binding [1]	binding [2]	Substance
binds	–	MOB2 (chicken), expressed from pcDNA3.0-MOB2
–	binds	LATS1 (chicken large tumor suppressor homolog 1), endogenous
binds	–	LATS1 (chicken), expressed from pcDNA3.0-LATS1
–	binds	MOB2 (chicken), endogenous

These are yes or no findings as the source states them, for the method shown. In cells and extracts the contact can be indirect. Binding can be weak; no strength is given. Where a sequence is shown, tags or fusion partners need not be part of it.
